Assay results: publication PMC7140707
No constants are given. Whether binding was seen depends on the method and setting. Binding seen in cells or lysates may run through a third protein. These calls come from enrichment with a bait or labelling near it, and not all partners need be listed. Where a sequence is shown, tags or fusion partners need not be part of it.

T1: His6-Gis1 (yeast (S. cerevisiae)) (UniProt Q03833)
T1 sequence: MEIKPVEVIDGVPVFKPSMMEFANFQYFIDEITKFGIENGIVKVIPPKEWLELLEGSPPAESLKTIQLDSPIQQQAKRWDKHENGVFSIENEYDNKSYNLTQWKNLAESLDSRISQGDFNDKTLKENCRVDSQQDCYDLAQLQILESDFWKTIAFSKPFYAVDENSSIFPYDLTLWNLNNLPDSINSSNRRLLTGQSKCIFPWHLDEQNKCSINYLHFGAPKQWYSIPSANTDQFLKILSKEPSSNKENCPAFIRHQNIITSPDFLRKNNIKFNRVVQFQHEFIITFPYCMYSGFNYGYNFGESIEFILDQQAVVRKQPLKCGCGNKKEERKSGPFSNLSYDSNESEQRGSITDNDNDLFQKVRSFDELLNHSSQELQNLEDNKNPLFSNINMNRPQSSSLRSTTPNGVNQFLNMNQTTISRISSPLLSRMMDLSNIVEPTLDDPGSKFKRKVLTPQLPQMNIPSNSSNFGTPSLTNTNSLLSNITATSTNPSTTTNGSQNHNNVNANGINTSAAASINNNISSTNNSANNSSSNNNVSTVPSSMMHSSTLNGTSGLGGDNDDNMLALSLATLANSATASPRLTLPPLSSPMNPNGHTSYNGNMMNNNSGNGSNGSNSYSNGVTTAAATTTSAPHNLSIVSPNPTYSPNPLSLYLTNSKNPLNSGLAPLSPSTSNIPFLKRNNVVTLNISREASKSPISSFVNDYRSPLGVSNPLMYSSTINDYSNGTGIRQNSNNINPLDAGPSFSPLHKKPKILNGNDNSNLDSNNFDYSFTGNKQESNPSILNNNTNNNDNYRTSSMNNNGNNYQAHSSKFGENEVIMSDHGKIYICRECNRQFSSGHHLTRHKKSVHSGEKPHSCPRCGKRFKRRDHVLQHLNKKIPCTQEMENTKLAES


What follows are binders tested against T1, His6-Gis1 (yeast (S. cerevisiae)) (assay: affinity purification with mass spectrometry; His6-Gis1 pre-bound to a Ni Sepharose 6 Fast Flow column; crude yeast extract (Δgis1 cells grown in air or under hypoxia, Δgis1Δhem1 cells at intermediate or high ALA) loaded, 4 °C, 2 h; eluted complexes separated by SDS-PAGE, bands excised, MS; only the target purified).

| Binder | binding |
| --- | --- |
| RPT1 (protein, UniProt P33299 1-467) MPPKEDWEKYKAPLEDDDKKPDDDKIVPLTEGDIQVLKSYGAAPYAAKLKQTENDLKDIEARIKEKAGVKESDTGLAPSHLWDIMGDRQRLGEEHPLQVARCTKIIKGNGESDETTTDNNNSGNSNSNSNQQSTDADEDDEDAKYVINLKQIAKFVVGLGERVSPTDIEEGMRVGVDRSKYNIELPLPPRIDPSVTMMTVEEKPDVTYSDVGGCKDQIEKLREVVELPLLSPERFATLGIDPPKGILLYGPPGTGKTLCARAVANRTDATFIRVIGSELVQKYVGEGARMVRELFEMARTKKACIIFFDEIDAVGGARFDDGAGGDNEVQRTMLELITQLDGFDPRGNIKVMFATNRPNTLDPALLRPGRIDRKVEFSLPDLEGRANIFRIHSKSMSVERGIRWELISRLCPNSTGAELRSVCTEAGMFAIRARRKVATEKDFLKAVDKVISGYKKFSSTSRYMQYN | binds |
| ERG6 (protein, UniProt P25087 1-383) MSETELRKRQAQFTRELHGDDIGKKTGLSALMSKNNSAQKEAVQKYLRNWDGRTDKDAEERRLEDYNEATHSYYNVVTDFYEYGWGSSFHFSRFYKGESFAASIARHEHYLAYKAGIQRGDLVLDVGCGVGGPAREIARFTGCNVIGLNNNDYQIAKAKYYAKKYNLSDQMDFVKGDFMKMDFEENTFDKVYAIEATCHAPKLEGVYSEIYKVLKPGGTFAVYEWVMTDKYDENNPEHRKIAYEIELGDGIPKMFHVDVARKALKNCGFEVLVSEDLADNDDEIPWYYPLTGEWKYVQNLANLATFFRTSYLGRQFTTAMVTVMEKLGLAPEGSKEVTAALENAAVGLVAGGKSKLFTPMMLFVARKPENAETPSQTSQEATQ | binds |
| OLE1 (protein, UniProt P21147 1-510) MPTSGTTIELIDDQFPKDDSASSGIVDEVDLTEANILATGLNKKAPRIVNGFGSLMGSKEMVSVEFDKKGNEKKSNLDRLLEKDNQEKEEAKTKIHISEQPWTLNNWHQHLNWLNMVLVCGMPMIGWYFALSGKVPLHLNVFLFSVFYYAVGGVSITAGYHRLWSHRSYSAHWPLRLFYAIFGCASVEGSAKWWGHSHRIHHRYTDTLRDPYDARRGLWYSHMGWMLLKPNPKYKARADITDMTDDWTIRFQHRHYILLMLLTAFVIPTLICGYFFNDYMGGLIYAGFIRVFVIQQATFCINSLAHYIGTQPFDDRRTPRDNWITAIVTFGEGYHNFHHEFPTDYRNAIKWYQYDPTKVIIYLTSLVGLAYDLKKFSQNAIEEALIQQEQKKINKKKAKINWGPVLTDLPMWDKQTFLAKSKENKGLVIISGIVHDVSGYISEHPGGETLIKTALGKDATKAFSGGVYRHSNAAQNVLADMRVAVIKESKNSAIRMASKRGEIYETGKFF | binds |
| MOT3 (protein, UniProt P54785 1-490) MNADHHLQQQQQQRQQHQQQQHQQQQHQHQHQQQQHTILQNVSNTNNIGSDSLASQPFNTTTVSSNKDDVMVNSGARELPMPLHQQQYIYPYYQYTSNNSNNNNVTAGNNMSASPIVHNNSNNSNNSNISASDYTVANNSTSNNNNNNNNNNNNNNNIHPNQFTAAANMNSNAAAAAYYSFPTANMPIPQQDQQYMFNPASYISHYYSAVNSNNNGNNAANNGSNNSSHSAPAPAPGPPHHHHHHSNTHNNLNNGGAVNTNNAPQHHPTIITDQFQFQLQQNPSPNLNLNINPAQPLHLPPGWKINTMPQPRPTTAPNHPPAPVPSSNPVASNLVPAPSSDHKYIHQCQFCEKSFKRKSWLKRHLLSHSQQRHFLCPWCLSRQKRKDNLLQHMKLKHTNYLLDELKKNNIIFNYNNSSSSNNNNDNNNNNNSNSASGSGGAGAAAAAATAPENEDGNGYDTNIKTLINDGVLNKDDVKRVLNNLIVSHNK | binds |
| PAL2 (protein, UniProt P38809 1-366) MNQTGRTIGGPQNGVNTVINPFRVSPSEDRVSSRDETPRNYNNPFLNEDDTRRAHNSSVSNSRQERLPSYEEAAGTPKQQAPYPKEKKRSSGSNSHQHNHHHHRRTSHGHRDKDKQKSKSRTKVKPPKNVDTIDKMDVTGLFGGSFHHDGPFDACTPQRNKNNKVAPVLAFPADGPNNTVGGRTSKKSTLDEVFGRETVDDDSETLNQLQDRAYLFNKANSSTTTLDAIKPNSKNITQFDSKMKTELVHGPITMGLGSTTFLDGAPASSAAIEQDVINHAQESRRKNSIARKKSLPSRRHLQVNNNNLKLVKTHSGHLEQKDVDDNRTSVPVTATQGSGHEDVVKKENTGNKLLRRVKSLKTSKKH | binds |
| NMA2 (protein, UniProt P53204 1-395) MDPTKAPDFKPPQPNEELQPPPDPTHTIPKSGPIVPYVLADYNSSIDAPFNLDIYKTLSSRKKNANSSNRMDHIPLNTSDFQPLSRDVSSEEESEGQSNGIDATLQDVTMTGNLGVLKSQIADLEEVPHTIVRQARTIEDYEFPVHRLTKKLQDPEKLPLIIVACGSFSPITYLHLRMFEMALDDINEQTRFEVVGGYFSPVSDNYQKRGLAPAYHRVRMCELACERTSSWLMVDAWESLQSSYTRTAKVLDHFNHEINIKRGGIMTVDGEKMGVKIMLLAGGDLIESMGEPHVWADSDLHHILGNYGCLIVERTGSDVRSFLLSHDIMYEHRRNILIIKQLIYNDISSTKVRLFIRRGMSVQYLLPNSVIRYIQEYNLYINQSEPVKQVLDSKE | binds |

Further lines, results first:

| binding | Binder |
| --- | --- |
| binds | IST2 (protein, UniProt P38250 1-946) MSQTITSLDPNCVIVFNKTSSANEKSLNVEFKRLNIHSIIEPGHDLQTSYAFIRIHQDNAKPLFSFLQNLDFIESIIPYHDTELSDDLHKLISISKSKILEAPKQYELYNLSNLTNNPKQSLYFAFLQNYIKWLIPFSFFGLSIRFLSNFTYEFNSTYSLFAILWTLSFTAFWLYKYEPFWSDRLSKYSSFSTIEFLQDKQKAQKKASSVIMLKKCCFIPVALLFGAILLSFQLYCFALEIFIKQIYNGPMISILSFLPTILICTFTPVLTVIYNKYFVEPMTKWENHSSVVNAKKSKEAKNFVIIFLSSYVPLLITLFLYLPMGHLLTAEIRTKVFNAFSILARLPTHDSDFIIDTKRYEDQFFYFIVINQLIQFSMENFVPSLVSIAQQKINGPNPNFVKAESEIGKAQLSSSDMKIWSKVKSYQTDPWGATFDLDANFKKLLLQFGYLVMFSTIWPLAPFICLIVNLIVYQVDLRKAVLYSKPEYFPFPIYDKPSSVSNTQKLTVGLWNSVLVMFSILGCVITATLTYMYQSCNIPGVGAHTSIHTNKAWYLANPINHSWINIVLYAVFIEHVSVAIFFLFSSILKSSHDDVANGIVPKHVVNVQNPPKQEVFEKIPSPEFNSNNEKELVQRKGSANEKLHQELGEKQPASSANGYEAHAATHANNDPSSLSSASSPSLSSSSSSSKTGVVKAVDNDTAGSAGKKPLATESTEKRNSLVKVPTVGSYGVAGATLPETIPTSKNYYLRFDEDGKSIRDAKSSAESSNATNNNTLGTESKLLPDGDAVDALSRKIDQIPKIAVTGGENNENTQAKDDAATKTPLIKDANIKPVVNAAVNDNQSKVSVATEQTKKTEVSTKNGPSRSISTKETKDSARPSNNNTTTTTTTDATQPHHHHHHHRHRDAGVKNVTNNSKTTESSSSSSAAKEKPKHKKGLLHKLKKKL |
| binds | OPY1 (protein, UniProt P38271 1-328) MIAGATAPSSQHEILIASNLIKKPSTSQNKTPTAQSSSGNNGAADGAPQGYHHHHHHHRHLWWPRTTDHQYWCVLRKNQFAYYKTRDEREAISVIPRFDILNFKISELDGILTVYTPSKDLIFKFPRGQNEKVGMELMHNWKIALEKFLSSPSGNESVTTGSDYDEEEDDDDLIVVDEKAGPSSSKHSCSLTMDEQLSREDKEFYRMFDPRNAEHQVCSGILYTKVKKKKLFNRAKWQKFNVELTNTSFNLYSFKTGKLKKSIKLDKIIDCIELDNNSKMKNDDTNFALITFDERLSFKAANDQDMVDWIINFKSGILIRKKLKAENI |
| binds | RTK1 (protein, UniProt Q12100 1-620) MVKETPLHSSSSTSLSSLFRPTKLKNLSAKIFNGGGNQSYSKTDDVSRSSSRSSKKNTDSDQEDQIKYNKPNDRRSTIGKSPQGNGALSKESHVVASSTLTGISPTSAKKAPIDYSPSRPLPNNHNPVRTGHTVPHLPHSIHNPINYIHQGSKDAFHHPHPVRSTAHSNISTVSSAKSDTPSSNLSYQAHMHPVEILQKQIEDKHFMDSQASTPGSVELQHNSSSGSDDTSSRKKKSLRLTRFFKKIHNDYHDNHHHHHHHNRGSTPTKPKLNLNTNENIVESNGKALYETDNPVELLEKYGIPGRKLGEGASGSVSVVERTDGKLFACKMFRKPHLNNEGTNQSQLANYSKKVTTEFCIGSTLHHENIVETLDMLTEGDTYLLVMEYAPYDFFNLVMSNLMTQDEVNCYFKQLCHGVNYLHSMGLAHRDLKLDNCVVTKDGILKLIDFGSAVVFQYPYEDTIVKSHGIVGSDPYLAPELLKQTSYDPRVADVWSIAIIFYCMVLKRFPWKAPKKSFNSFRLFTEEPEDEDDIVRGPNKILRLLPRHSRTIIGRMLALEPKQRVLMNDVVKDDWLVSVPSCEVDPTSGDLVEKPKNHKHHLVTEEELNELTKQHGNKDSN |
| binds | NMA1 (protein, UniProt Q06178 1-401) MDPTRAPDFKPPSADEELIPPPDPESKIPKSIPIIPYVLADANSSIDAPFNIKRKKKHPKHHHHHHHSRKEGNDKKHQHIPLNQDDFQPLSAEVSSEDDDADFRSKERYGSDSTTESETRGVQKYQIADLEEVPHGIVRQARTLEDYEFPSHRLSKKLLDPNKLPLVIVACGSFSPITYLHLRMFEMALDAISEQTRFEVIGGYYSPVSDNYQKQGLAPSYHRVRMCELACERTSSWLMVDAWESLQPSYTRTAKVLDHFNHEINIKRGGVATVTGEKIGVKIMLLAGGDLIESMGEPNVWADADLHHILGNYGCLIVERTGSDVRSFLLSHDIMYEHRRNILIIKQLIYNDISSTKVRLFIRRAMSVQYLLPNSVIRYIQEHRLYVDQTEPVKQVLGNKE |
